In publication PMC3582507:
These are yes or no findings as the source states them, for the method shown. Binding seen in cells or lysates may run through a third protein. A yes stands for co-enrichment or nearness to the bait. Other partners may have been found. Blank lines part the entries; values can stand above or below the binder they belong to.

Molecular target: T1, Gps1-TAP (S. cerevisiae) (UniProt Q99299)
T1 sequence: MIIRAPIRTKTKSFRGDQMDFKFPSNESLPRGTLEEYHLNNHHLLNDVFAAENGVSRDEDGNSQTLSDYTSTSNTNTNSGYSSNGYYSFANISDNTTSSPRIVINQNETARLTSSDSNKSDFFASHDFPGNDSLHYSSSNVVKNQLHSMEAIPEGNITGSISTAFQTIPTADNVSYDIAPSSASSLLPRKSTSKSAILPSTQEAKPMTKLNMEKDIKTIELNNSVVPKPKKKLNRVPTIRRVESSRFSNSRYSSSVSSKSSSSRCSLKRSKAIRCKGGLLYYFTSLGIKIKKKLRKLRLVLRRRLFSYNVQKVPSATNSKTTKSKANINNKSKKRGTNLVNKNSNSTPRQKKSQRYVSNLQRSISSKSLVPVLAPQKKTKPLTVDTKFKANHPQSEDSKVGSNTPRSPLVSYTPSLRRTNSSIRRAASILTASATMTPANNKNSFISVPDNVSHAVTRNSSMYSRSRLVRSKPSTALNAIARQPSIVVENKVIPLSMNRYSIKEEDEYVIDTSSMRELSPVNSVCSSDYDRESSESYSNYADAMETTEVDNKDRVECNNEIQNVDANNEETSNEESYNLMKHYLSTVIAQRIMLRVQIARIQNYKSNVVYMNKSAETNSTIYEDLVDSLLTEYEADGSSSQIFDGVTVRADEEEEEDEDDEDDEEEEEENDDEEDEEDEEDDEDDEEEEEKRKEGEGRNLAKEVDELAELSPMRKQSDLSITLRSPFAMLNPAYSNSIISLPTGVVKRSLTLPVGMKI
Test: affinity purification with mass spectrometry; large-scale TAP purification of Gps1-TAP from 1.6-l yeast culture with Dynabeads coupled to rabbit IgG; interacting proteins identified by mass spectrometry

binding: binds
B1: Nba1 (protein, UniProt Q08229 1-501)
chain: MSEEREENGISRATLNTQRLSAMIDSLNNEKDDRLFPSPTTTRTMITEEKADQSDVFKPPSRLLRSPAGDVSLPPGDNRSSMISNYSGIIQEGVEVSYVVKNRQQTQERRTSKDSNSLYSLKEPVSKNELPSLPMLPSEATLTKHLSDNQSTKSNTNADEIVIKPVTNAKPVGRFNSNTSKKVEGRGSLKLLSSPLRQEKVMRSSIGSGNLASESGSSTYNTKFHQSIQEQLEEEEEGNVSDKLSIVSSVIPELYTTTNEAPKAINPIRSETNDYNPTIPPRSKDRPRSRLFIEEGDGEGDLLTEEILPTPVQPGGHYKNSSQISTVSEQKSESYYSAATSMPPEEETYLTRPLPSTPNEDSRVTSNLKRDDTLKAIHDRANHTSTSTNKQDDDMYEDIIEETPKKTKLKKDTKKKLNKKKSVKELRSFDIDTLNQLLSVTKGTLIGSEFAQLGMKIEEKRALERLVDSLSRLTADMVLDPDRYEEGLKRLDKATKALEGF

binding: binds
B2: Nis1 (protein, UniProt P53939 1-407)
chain: METYETSIGTQSYPPTLFPPPLGTGGFTTSGYIHALVDSTSNSNSNSNTNSNTNSNTNSNSDTKIPIVQISDDSHITHDSFKPYMEYHDASHLRNRNISKADQVESTEVMEQFTQWSNYKMRSRSPTINAKPIRHTSQRRTDFTSKNELSKFSKNHNFIFHKGFLKRQHSIRREDRQAKVRSRFRSKKELTSVLNYIELEQMDIANVLASQPVNLHAIRNLTSRDPAVTPIPFLRSQMYATSSRPPYLRNRSISRKLPKSQPGSLPTTMPATATKTIKQNSTTPTTRSVYNKNVGRSNTSPSVLYHPKRRGKLNTKSHARKEQLLLELWREYLMLVITQRTQLRLTLLCSPGSASNESSVCSSNASDLDMSLLSTPSSLFQMAGETKSNPIIIPDSQDDSILSSDPF
